PMC10266348
No constants are given. Whether binding was seen depends on the method and setting. In cells and extracts the contact can be indirect. Some entries that bind do so weakly or less than the wild type.

Chains of the proteins cited; added tags and fusions are not shown. Residues count along the entry.
UniProt P10923, residues 17-294: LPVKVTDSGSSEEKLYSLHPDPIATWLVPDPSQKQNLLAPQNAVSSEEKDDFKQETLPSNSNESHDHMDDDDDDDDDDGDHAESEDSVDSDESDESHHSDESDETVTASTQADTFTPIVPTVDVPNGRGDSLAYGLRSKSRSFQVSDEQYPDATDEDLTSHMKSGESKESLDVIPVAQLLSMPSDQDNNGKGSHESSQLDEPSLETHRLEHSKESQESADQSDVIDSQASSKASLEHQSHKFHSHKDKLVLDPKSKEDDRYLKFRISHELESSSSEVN
UniProt Q9R0P9: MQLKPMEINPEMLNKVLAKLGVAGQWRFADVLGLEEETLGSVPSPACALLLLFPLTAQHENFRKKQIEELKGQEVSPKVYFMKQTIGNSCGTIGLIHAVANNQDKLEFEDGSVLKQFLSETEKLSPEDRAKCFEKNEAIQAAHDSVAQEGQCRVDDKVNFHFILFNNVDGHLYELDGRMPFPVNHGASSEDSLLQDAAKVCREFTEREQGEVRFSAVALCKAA

Target: Osteopontin (mouse (endogenous in bone marrow-derived macrophages)) (UniProt P10923)
Assay: co-IP; endogenous proteins in BMMΦ lysate (Pierce IP Lysis Buffer); pre-cleared with TrueBlot Anti-Rabbit IP beads, primary antibody overnight at 4°C, beads washed with lysis buffer, SDS-PAGE and blot; GA-stimulated macrophages not included

**Q.** How did the binding turn out when “ubiquitin carboxyl-terminal hydrolase isozyme 1 (from UniProt Q9R0P9 1-223) (enzyme)” was run?
**A.** Its binding is “binds”.
